Paper PMC4354923
These are yes or no findings as the source states them, for the method shown. For part of these data: In cells and extracts the contact can be indirect. Some results given as binding are weak or reduced against the parent protein; the word gives no strength. For part of these data: Sequences can lack the tags named with a protein.

The chains behind the UniProt entries cited, without tags or fusion partners.
UniProt Q8BGW1: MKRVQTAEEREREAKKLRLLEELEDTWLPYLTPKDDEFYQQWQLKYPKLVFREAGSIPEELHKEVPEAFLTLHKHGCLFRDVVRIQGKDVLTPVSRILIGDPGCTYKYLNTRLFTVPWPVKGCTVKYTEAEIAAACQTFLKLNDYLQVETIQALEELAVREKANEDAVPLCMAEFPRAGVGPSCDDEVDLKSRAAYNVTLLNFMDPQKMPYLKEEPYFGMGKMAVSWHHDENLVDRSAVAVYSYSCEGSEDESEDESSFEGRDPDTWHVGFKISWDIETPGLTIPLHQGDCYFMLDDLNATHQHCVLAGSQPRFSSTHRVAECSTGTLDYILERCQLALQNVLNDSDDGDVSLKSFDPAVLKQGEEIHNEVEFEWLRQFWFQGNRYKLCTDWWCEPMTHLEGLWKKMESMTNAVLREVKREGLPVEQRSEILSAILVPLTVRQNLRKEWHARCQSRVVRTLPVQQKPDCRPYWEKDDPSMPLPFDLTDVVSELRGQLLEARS

Key:
FLAG tagged FTO = FLAG tagged FTO (UniProt Q9C0B1); test: co-IP; HEK293 cells transiently transfected with vector alone or Flag-FTO, harvested after 48 h; Flag immunoprecipitation of cell extracts, elution with glycine buffer (pH 3.0) at 4 °C for 30 min, western blot
[1] = molecular target: endogenous Fto (mouse embryonic fibroblasts) (mouse (endogenous in MEFs)) (UniProt Q8BGW1); test: co-IP; endogenous proteins in MEFs from wild type mice (Fto null MEFs as negative control), grown for 24 h; immunoprecipitation with antibodies against FTO or TRIP4, western blot
[2] = molecular target: FTO full length, fusion to the GAL4 DNA-binding domain (pGBKT7-FTO) (human) (UniProt Q9C0B1); test: two-hybrid; Matchmaker Gold Yeast Two-Hybrid System (Clontech), mating assay; FTO on GAL4 DNA-BD (pGBKT7), TRIP4 on GAL4 AD (pGADT7); four reporters (AUR1-C, ADE2, HIS3, MEL1), five-point grading by growth on selective medium; reverse orientation also assayed for a selection, comparable results

B1: Thyroid receptor interacting protein 4 (TRIP4), in HEK293 cell extract (protein, UniProt Q15650 1-581)
chain: MAVAGAVSGEPLVHWCTQQLRKTFGLDVSEEIIQYVLSIESAEEIREYVTDLLQGNEGKKGQFIEELITKWQKNDQELISDPLQQCFKKDEILDGQKSGDHLKRGRKKGRNRQEVPAFTEPDTTAEVKTPFDLAKAQENSNSVKKKTKFVNLYTREGQDRLAVLLPGRHPCDCLGQKHKLINNCLICGRIVCEQEGSGPCLFCGTLVCTHEEQDILQRDSNKSQKLLKKLMSGVENSGKVDISTKDLLPHQELRIKSGLEKAIKHKDKLLEFDRTSIRRTQVIDDESDYFASDSNQWLSKLERETLQKREEELRELRHASRLSKKVTIDFAGRKILEEENSLAEYHSRLDETIQAIANGTLNQPLTKLDRSSEEPLGVLVNPNMYQSPPQWVDHTGAASQKKAFRSSGFGLEFNSFQHQLRIQDQEFQEGFDGGWCLSVHQPWASLLVRGIKRVEGRSWYTPHRGRLWIAATAKKPSPQEVSELQATYRLLRGKDVEFPNDYPSGCLLGCVDLIDCLSQKQFKEQFPDISQESDSPFVFICKNPQEMVVKFPIKGNPKIWKLDSKIHQGAKKGLMKQNKAV
binding (FLAG tagged FTO): binds

B2: endogenous Trip4 (mouse embryonic fibroblasts) (protein, UniProt Q9QXN3 1-581)
chain: MAVAGAAYREPLVHWCTQQLQKTFALDVSEEIIQYVLSIENAEEIREYVTDLLQGNEGKKGQFIEDLITKWQKNDQEFISDSFQQCLRKDEILDGQRSVDQLKRSRRKGRNKQEVPAFPEPDVAVEVKTPLDLAKAQESNNSVKKKTRFVNLYTREGQDKLAVLLPGRHPCDCLGQKHKLINNCLVCGRIVCEQEGSGPCLFCGSLVCTNEEQDILQRDSNKSQKLLKKLMSGAETSGKVDVSTKDLLPHQESRMKSGLEKAIKHKEKLLEFDRTSIRRTQVIDDESDYFASDSNQWLSKVEREMLQKREEELRELRHASRLSKKVTIDFAGRKILEDENPLAEYHSRLDETIQAIASGTLNQSLVTLDRSCEEPLGVLVNPNMYQASPQWVDNTGSTPQKKTSLSAGPRLEPSLHQHQLRIQDQEFQEGFDGGWCLSMHQPWASLLVRGIKRVEGRSWYTPHRGRLWIAATGKRPSPQEVSELQATYRLLRGKDVEFPNDYPSGCLLGCVDLIDCLSQKQFQEQFPDISQESDSSFVFICKNPQEMVVKFPIKGNPKIWKLDSKIHQGAKKGLMKQNKAV
binding [1]: binds

B3: TRIP4 full length, fusion to the GAL4 activation domain (pGADT7-TRIP4) (protein, UniProt Q15650 1-581)
chain: MAVAGAVSGEPLVHWCTQQLRKTFGLDVSEEIIQYVLSIESAEEIREYVTDLLQGNEGKKGQFIEELITKWQKNDQELISDPLQQCFKKDEILDGQKSGDHLKRGRKKGRNRQEVPAFTEPDTTAEVKTPFDLAKAQENSNSVKKKTKFVNLYTREGQDRLAVLLPGRHPCDCLGQKHKLINNCLICGRIVCEQEGSGPCLFCGTLVCTHEEQDILQRDSNKSQKLLKKLMSGVENSGKVDISTKDLLPHQELRIKSGLEKAIKHKDKLLEFDRTSIRRTQVIDDESDYFASDSNQWLSKLERETLQKREEELRELRHASRLSKKVTIDFAGRKILEEENSLAEYHSRLDETIQAIANGTLNQPLTKLDRSSEEPLGVLVNPNMYQSPPQWVDHTGAASQKKAFRSSGFGLEFNSFQHQLRIQDQEFQEGFDGGWCLSVHQPWASLLVRGIKRVEGRSWYTPHRGRLWIAATAKKPSPQEVSELQATYRLLRGKDVEFPNDYPSGCLLGCVDLIDCLSQKQFKEQFPDISQESDSPFVFICKNPQEMVVKFPIKGNPKIWKLDSKIHQGAKKGLMKQNKAV
binding [2]: binds
